{"source": "patent EP0322396A1", "about": "“Benzimidazole derivatives, their preparation and use” (Gerot-Pharmazeutika Gesellschaft m.b.H., priority 1987, dated 1989)", "experiment": "in vivo", "conditions": "mouse, iv, Maus i.v."}
{"smiles": "COC(=O)C1=C(C)NC(C)=C(C(=O)OC)C1c1ccccc1[N+](=O)[O-]", "note": "[Nifedipin, reference compound]", "values": [{"measurement": "LD50", "result": 4.2, "unit": "mg/kg"}]}
